Values quoted from earlier work in patent US20200003760A1, “IN-VITRO METHODS FOR CLASSIFYING DRUGS ACCORDING TO THEIR POTENTIAL TO CAUSE LIVER CELL INJURY” (Board of Trustees of Michigan State University, priority 2018, published 2020).

How the values were obtained:
[1] = criteria of Xu et al. (2008); cited from earlier work
[2] = maximal plasma concentration after pharmacologic dosing in human patients; cited from earlier work

SMILES: COc1ccc2cc([C@H](C)C(=O)O)ccc2c1 [Naproxen]
- IDILI liability [1]: IDILI+
- Cmax [2]: 300 µM
